The other results are listed elsewhere or left out. Further columns of the screen follow, without active or inactive calls. The list favours compounds with an active or inconclusive main result. Potencies come from curve fits of mixed quality, noted in brackets.
Assay: qHTS Assay for Lipid Storage Modulators in Drosophila S3 Cells;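 on cell number change: cells counted by Cell Tracker Red CMTPX staining in the red channel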
Conditions: BODIPY lipid droplet fluorescence, 18-24 h; for cell number change: measured here: cell count max response, cells fed with added oleic acid
Procedure, shortened: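 Drosophila S3 cells loaded with oleic acid (400 uM, as added) and compounds at several concentrations; lipid droplets imaged by 488-nm laser-scanning cytometry, 500–530 nm intensity and object ratio to cell channel. Percent activity normalized to 20 uM Triacsin C.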

[1] = measured here: cell number channel AC50, cells fed with added oleic acid
[2] = measured here: lipid fluorescence (Fed channel) AC50, cells fed with added oleic acid

SMILES | cell number change [%] | AC50 [1] | AC50 [2]
Cn1nc(-c2ccc(C(=O)NCC3CCCO3)cc2)c2ccccc2c1=O (configuration not stated) | -11.8 | – | –
COc1ccc(OC)c(NC(=O)Cn2cc(C#N)c3cc(Br)ccc32)c1 | -49.1 | 23.1 µM [falling, single point] | –
O=C(c1cn(-c2ccccc2)nc1-c1cccs1)N1CCN(c2ccccc2)CC1 | -15.9 | 0.0731 µM [falling, full curve, poor fit] | –
O=C(NCc1ccco1)/C(=C/c1ccccc1F)NC(=O)c1ccccc1 | -2.69 | – | 32.6 µM [falling, single point]
COc1cc(C(=O)N(CCCO)Cc2cc3ccc(C)c(C)c3[nH]c2=O)cc(OC)c1OC | 7.6 | 6.51 µM [rising, single point] | 29.1 µM [rising, single point]
CC(C)c1ccc(S(=O)(=O)Nc2ccc(N3CCOCC3)cc2)cc1 | 4.7 | – | –
Cc1ccc(-n2nnnc2CNC(=O)C2CC(=O)N(c3ccccc3)C2)cc1C (configuration not stated) | 6.57 | – | 6.51 µM [falling, single point]
CCC(c1nnc(SCC(=O)Nc2ccc(C(=O)Nc3ccccc3OC)cc2)o1)N(C)C (configuration not stated) | – | – | 0.13 µM [rising, full curve, poor fit]
CN1CCCN(C(=O)c2ccc(Cl)cc2)CC1 | -0.275 | – | 6.51 µM [rising, single point]
Cc1ccc(NC(=O)c2nc[nH]c2C(=O)N2CCN(c3ccccc3)CC2)cc1 | 14.3 | – | 16.4 µM [rising, partial curve]
O=C(COC(=O)C1CCN(S(=O)(=O)c2cccs2)CC1)Nc1ccc(F)cc1F | -2.69 | – | 29.1 µM [rising, single point]
CC(C)CCC(C)NC(=O)C1CCN(S(=O)(=O)/C=C/c2ccccc2)CC1 (configuration not stated) | 7.66 | – | 0.116 µM [falling, full curve, poor fit]
COc1ccc(C(=O)c2c[nH]c3ccccc23)cc1 | -0.255 | – | 0.92 µM [rising, full curve, poor fit]
O=C(NCCc1c[nH]c2ccccc12)C(=O)NCC1OCCCN1S(=O)(=O)c1ccc(F)cc1 (configuration not stated) | 3.6 | – | 25.9 µM [rising, partial curve]
CCOC(=O)c1ccc(N2N=C(C)/C(=C/C=C/c3ccco3)C2=O)cc1 | -28.1 | – | 20.6 µM [falling, partial curve]
CCc1ccccc1NC(=O)CN(C)Cc1c(O)ccc2ccccc12 | – | – | 0.092 µM [rising, full curve, poor fit]
Oc1ccc(-c2cn3c(n2)SCC3)cc1O | 10.7 | 6.51 µM [rising, single point] | 2.59 µM [rising, partial curve]

Two consecutive records out of the list so far:
SMILES | cell number change [%] | AC50 [1] | AC50 [2]
Cc1ccc(NC(=O)c2nc[nH]c2C(=O)N2CCN(c3ccccc3)CC2)cc1 | 14.3 | – | 16.4 µM [rising, partial curve]
O=C(COC(=O)C1CCN(S(=O)(=O)c2cccs2)CC1)Nc1ccc(F)cc1F | -2.69 | – | 29.1 µM [rising, single point]
